Measured values: PubChem BioAssay AID2685 (National Center for Advancing Translational Sciences (NCATS), 2010)
This is one part of the list. These are further read-outs of the screen, such as a control signal, another cell line or another target. No call is given for them. The list favours compounds with an active or inconclusive main result. The note in brackets gives the kind of curve behind each potency; many fits are weak.

Assay: qHTS Assay for Lipid Storage Modulators in Drosophila S3 Cells;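 for cell number change: cells counted by Cell Tracker Red CMTPX staining in the red channel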
Details: BODIPY lipid droplet fluorescence, 18-24 h; for cell number change: measured here: cell count max response, cells fed with added oleic acid
Procedure, shortened: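 Laser-scanning cytometry quantifies lipid droplet accumulation (500–530 nm total intensity; droplet/cell object ratio) in oleic acid-fed (400 uM added) Drosophila S3 cells treated with a concentration series. 20 uM Triacsin C defined 100% inhibition.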

[1] = measured here: lipid fluorescence (Fed channel) AC50, cells fed with added oleic acid
[2] = measured here: cell number channel AC50, cells fed with added oleic acid

| SMILES | cell number change [%] | AC50 [1] | AC50 [2] |
| --- | --- | --- | --- |
| CCOC(=O)NC(=O)/C(C=Nc1ccc(Cl)cc1)=C(\C)O | -12.9 | 0.58 µM [falling, single point] | – |
| O=c1c2ccccc2nnn1Cc1cccc2ccccc12 | 3.82 | 1.64 µM [falling, partial curve] | – |
| CC(C(=O)O)n1cnc2sc3c(c2c1=O)CCCC3 (stereo unspecified) | -16.7 | 0.651 µM [falling, single point] | – |
| Cc1ccc(-c2cc(C(F)F)n3ncc(C(=O)NN4CCCCC4)c3n2)cc1 | -19.3 | – | – |
| O=C(Cc1sc(-c2ccccc2)nc1-c1ccccc1)Nc1ccccc1 | 16 | 2.06 µM [rising, partial curve] | – |
| Cn1c(SCC(=O)N2CCCC2)nnc1-c1cnccn1 | – | 0.517 µM [rising, partial curve, poor fit] | 3.66 µM [rising, partial curve, poor fit] |
| CCNS(=O)(=O)c1ccc(NC(=O)Nc2cc(C)ccc2OC)cc1 | -21.6 | 1.84 µM [falling, partial curve] | – |
| CCOc1cc(NC(=S)NCC2CCCO2)c(OCC)cc1NC(=O)c1ccccc1F (stereo unspecified) | 15.8 | 0.00517 µM [falling, full curve, poor fit] | – |
| Cc1ccccc1Oc1cc(NC(=O)Cn2cnc([N+](=O)[O-])c2)cc([N+](=O)[O-])c1 | 0.24 | 0.00461 µM [falling, full curve, poor fit] | – |
| COc1ccc(-n2nnnc2-c2cccnc2)cc1 | -4.33 | – | – |
| CC(=O)c1cccc(NC(=O)CN2C(=O)NC(C)(c3ccc4c(c3)OCCCO4)C2=O)c1 (stereo unspecified) | 13.9 | 29.1 µM [rising, single point] | – |
| O=C(Nc1nc(-c2cc(Cl)sc2Cl)cs1)c1ccccc1 | 18.8 | 0.58 µM [rising, single point] | – |
| CCc1cc(=O)oc2cc(C)cc(OCC(=O)NC(Cc3c[nH]c4ccc(O)cc34)C(=O)O)c12 (stereo unspecified) | 22 | 0.58 µM [rising, single point] | – |
| CCCCn1c(NCc2cccs2)nc2ccccc21 | 21 | – | 3.66 µM [rising, single point] |
| COc1cccc(NC(=O)COC(=O)c2c3c(nc4ccccc24)CCC(C)C3)c1 (stereo unspecified) | -49.3 | 7.31 µM [falling, partial curve] | 29.1 µM [falling, single point] |
| Cc1onc(-c2ccccc2Cl)c1C(=O)Nc1ccccc1C(N)=O | -7.18 | – | – |
| C=CCn1c(SCC(=O)Nc2ccc(N(C)C)cc2)nnc1-c1cccc(C)c1 | 16.1 | 14.6 µM [rising, partial curve] | 0.326 µM [rising, full curve, poor fit] |
| CCOc1cc(C(N)=O)cc(Br)c1OCC | 9.32 | 23.1 µM [rising, single point] | – |
| C=CCN1C(=O)C2(NNc3ccccc3O2)c2ccccc21 (stereo unspecified) | -50.8 | 23.1 µM [falling, partial curve] | 29.1 µM [falling, single point] |
| CCC1(C)Cc2c(sc3nc(SC)n(Cc4ccccc4)c(=O)c23)CO1 (stereo unspecified) | 0.678 | 6.51 µM [rising, single point] | – |

| SMILES | cell number change [%] | AC50 [1] | AC50 [2] |
| --- | --- | --- | --- |
| CC(CC(=O)O)CC1=NS(=O)(=O)c2ccccc2N1 (stereo unspecified) | – | 10.3 µM [falling, partial curve] | – |
| COc1ccc(-c2cc(C)no2)cc1S(=O)(=O)Nc1cccc(C)c1 | -6.59 | 5.17 µM [rising, partial curve] | – |
| CCc1ccc(N2CC(C(=O)OCC(=O)Nc3ccc(C(C)=O)cc3)CC2=O)cc1 (stereo unspecified) | -3.92 | 0.231 µM [falling, full curve] | – |
| O=C(NCCc1c[nH]c2ccccc12)c1ccc2nc[nH]c2c1 | – | 29.1 µM [rising, single point] | – |
| O=C(c1ccc(Br)o1)N1CCN(c2ncccn2)CC1 | 87.9 | 18.4 µM [rising, partial curve] | 0.517 µM [rising, full curve] |
| O=C(Nc1ccncc1)c1cc2ccccc2cc1O | 13.1 | 8.2 µM [rising, partial curve] | – |
| CC(=O)N1CCN(c2ccc(Oc3ncnc4sccc34)cc2)CC1 | – | 0.092 µM [falling, full curve, poor fit] | – |
| CCCCCCOC(=O)C[N+](C)(C)CCOC1CC2CCC1(C)C2(C)C (stereo unspecified) | -70.4 | 29.1 µM [falling, single point] | 29.1 µM [falling, single point] |
| COc1ccc(CN(C(=O)c2snc(C(N)=O)c2N)C(CC(C)C)C(=O)NC2CCCCC2)cc1 (stereo unspecified) | -25.4 | 29.1 µM [falling, single point] | – |
| N#C/C(=C\c1cccs1)C(=O)c1ccccc1 | 9.1 | – | 3.66 µM [falling, single point] |
| CN(CC(=O)Nc1ccc(Cl)cc1)CC(=O)Nc1cccc2ccccc12 | -24.5 | 2.91 µM [falling, partial curve] | – |
| CCNc1c([N+](=O)[O-])ncn1C | -5.94 | 23.1 µM [falling, partial curve] | – |
| CC(C)(C)C(=O)NC(C(N)=O)=C(Cl)Cl | -15.4 | – | 0.092 µM [falling, full curve] |
| O=c1[nH]c2cc3c(cc2cc1CN(CCc1ccccc1)Cc1nnnn1C1CCCC1)OCCO3 | -8.93 | – | – |
| CCCS(=O)(=O)Nc1c(OC)ccc2c1c(C(=O)OCC)c(C)n2C | 0.854 | 2.59 µM [rising, single point] | – |
| Cc1ccccc1NC(=O)Cc1nc(COC(=O)COc2ccccc2C(C)C)cs1 | -21.9 | 20.6 µM [falling, single point] | – |
| Cc1cc(O)c(NC(=O)c2ccc(C)c([N+](=O)[O-])c2)cc1C | 16.2 | 0.0058 µM [rising, full curve, poor fit] | – |
| O=C(Nc1ccc(C(=O)O)cc1)Nc1ccc(F)cc1F | 16.8 | – | – |
| COc1cc(CO)cc(Br)c1OCC(=O)Nc1cccc2ccccc12 | 34.7 | 0.259 µM [rising, partial curve, poor fit] | 0.259 µM [rising, full curve, poor fit] |

A stretch taken from the entries so far, as a working copy:

| SMILES | cell number change [%] | AC50 [1] | AC50 [2] |
| --- | --- | --- | --- |
| CC(=O)N1CCN(c2ccc(Oc3ncnc4sccc34)cc2)CC1 | – | 0.092 µM [falling, full curve, poor fit] | – |
| CCCCCCOC(=O)C[N+](C)(C)CCOC1CC2CCC1(C)C2(C)C (stereo unspecified) | -70.4 | 29.1 µM [falling, single point] | 29.1 µM [falling, single point] |
| COc1ccc(CN(C(=O)c2snc(C(N)=O)c2N)C(CC(C)C)C(=O)NC2CCCCC2)cc1 (stereo unspecified) | -25.4 | 29.1 µM [falling, single point] | – |
